# Test results as given in the supplement of paper PMC6411743.
# By UniProt entry, the sequences of proteins in these tests, tags left out. Where a name states a change or a piece, a line headed by the entry shows the natural chain unless it says otherwise.
# UniProt Q16537, whole entry: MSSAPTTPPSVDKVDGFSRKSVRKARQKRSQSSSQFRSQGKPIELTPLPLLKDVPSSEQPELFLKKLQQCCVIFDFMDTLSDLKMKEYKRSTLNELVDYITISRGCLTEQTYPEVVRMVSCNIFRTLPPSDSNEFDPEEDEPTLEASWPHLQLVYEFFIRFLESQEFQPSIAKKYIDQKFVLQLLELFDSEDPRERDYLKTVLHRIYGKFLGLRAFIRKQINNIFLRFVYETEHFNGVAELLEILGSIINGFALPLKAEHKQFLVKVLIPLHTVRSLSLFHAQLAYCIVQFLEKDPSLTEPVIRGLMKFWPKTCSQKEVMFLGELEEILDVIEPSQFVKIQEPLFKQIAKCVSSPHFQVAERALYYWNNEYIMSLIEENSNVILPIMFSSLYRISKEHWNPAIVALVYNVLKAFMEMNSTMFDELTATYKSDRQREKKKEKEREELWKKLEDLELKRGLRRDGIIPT
# UniProt Q4LDG9: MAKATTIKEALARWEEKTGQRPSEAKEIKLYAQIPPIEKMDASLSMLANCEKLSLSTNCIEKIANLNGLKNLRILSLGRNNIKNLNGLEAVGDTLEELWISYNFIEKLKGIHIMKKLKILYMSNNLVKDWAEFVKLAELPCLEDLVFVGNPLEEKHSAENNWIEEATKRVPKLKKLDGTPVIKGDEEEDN
# UniProt Q15649: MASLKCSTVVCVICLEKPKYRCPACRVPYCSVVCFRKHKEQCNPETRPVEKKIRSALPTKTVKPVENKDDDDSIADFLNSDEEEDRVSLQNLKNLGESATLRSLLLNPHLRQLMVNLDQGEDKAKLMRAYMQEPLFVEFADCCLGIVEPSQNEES
# UniProt Q15185: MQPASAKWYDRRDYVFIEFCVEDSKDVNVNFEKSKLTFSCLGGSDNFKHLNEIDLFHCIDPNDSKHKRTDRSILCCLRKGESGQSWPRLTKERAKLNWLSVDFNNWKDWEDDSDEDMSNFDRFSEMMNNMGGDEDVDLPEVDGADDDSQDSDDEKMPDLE
# UniProt Q3YEC7: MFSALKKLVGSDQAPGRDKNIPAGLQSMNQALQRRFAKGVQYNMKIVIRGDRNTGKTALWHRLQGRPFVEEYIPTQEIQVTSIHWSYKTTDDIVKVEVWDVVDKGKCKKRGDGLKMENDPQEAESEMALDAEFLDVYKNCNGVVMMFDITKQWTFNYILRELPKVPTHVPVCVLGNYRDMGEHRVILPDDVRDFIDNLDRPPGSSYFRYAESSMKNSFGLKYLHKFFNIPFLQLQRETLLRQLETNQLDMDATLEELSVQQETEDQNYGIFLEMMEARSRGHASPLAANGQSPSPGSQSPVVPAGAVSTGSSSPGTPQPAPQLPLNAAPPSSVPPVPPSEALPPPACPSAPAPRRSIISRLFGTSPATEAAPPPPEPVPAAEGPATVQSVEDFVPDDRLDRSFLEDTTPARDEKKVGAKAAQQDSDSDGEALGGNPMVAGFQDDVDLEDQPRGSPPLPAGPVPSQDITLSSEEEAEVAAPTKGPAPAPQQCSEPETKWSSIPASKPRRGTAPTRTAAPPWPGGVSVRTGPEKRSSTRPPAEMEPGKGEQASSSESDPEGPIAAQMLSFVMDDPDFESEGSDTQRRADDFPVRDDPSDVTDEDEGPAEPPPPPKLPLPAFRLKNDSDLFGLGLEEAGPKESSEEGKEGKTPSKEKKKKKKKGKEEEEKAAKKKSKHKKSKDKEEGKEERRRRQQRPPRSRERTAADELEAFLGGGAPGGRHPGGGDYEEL
# UniProt Q15208: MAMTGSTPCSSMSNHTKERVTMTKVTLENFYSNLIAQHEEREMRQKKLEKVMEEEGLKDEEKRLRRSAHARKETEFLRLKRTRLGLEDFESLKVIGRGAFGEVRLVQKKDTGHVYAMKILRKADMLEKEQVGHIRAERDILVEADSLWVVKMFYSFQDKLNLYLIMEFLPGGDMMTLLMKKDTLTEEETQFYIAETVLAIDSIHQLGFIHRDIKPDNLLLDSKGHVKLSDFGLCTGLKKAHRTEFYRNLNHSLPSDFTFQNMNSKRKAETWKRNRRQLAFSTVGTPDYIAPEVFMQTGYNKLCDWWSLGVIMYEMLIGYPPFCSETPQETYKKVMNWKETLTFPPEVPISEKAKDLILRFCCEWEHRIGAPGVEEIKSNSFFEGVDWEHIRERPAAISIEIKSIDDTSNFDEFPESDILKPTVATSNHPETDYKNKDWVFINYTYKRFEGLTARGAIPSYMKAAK
# UniProt Q15904, whole entry: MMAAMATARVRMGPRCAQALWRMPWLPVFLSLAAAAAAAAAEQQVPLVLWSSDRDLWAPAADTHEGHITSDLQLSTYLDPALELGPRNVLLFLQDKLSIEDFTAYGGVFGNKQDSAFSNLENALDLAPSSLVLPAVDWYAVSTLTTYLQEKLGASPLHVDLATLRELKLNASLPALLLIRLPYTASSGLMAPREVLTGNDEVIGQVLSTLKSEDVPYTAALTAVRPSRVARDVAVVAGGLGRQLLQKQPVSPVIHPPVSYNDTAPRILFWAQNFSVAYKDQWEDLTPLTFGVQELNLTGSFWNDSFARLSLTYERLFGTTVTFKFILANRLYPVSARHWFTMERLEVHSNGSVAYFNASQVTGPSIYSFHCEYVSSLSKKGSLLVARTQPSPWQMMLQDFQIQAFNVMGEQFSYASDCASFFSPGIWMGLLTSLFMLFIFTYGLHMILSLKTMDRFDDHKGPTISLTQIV
# UniProt Q16181: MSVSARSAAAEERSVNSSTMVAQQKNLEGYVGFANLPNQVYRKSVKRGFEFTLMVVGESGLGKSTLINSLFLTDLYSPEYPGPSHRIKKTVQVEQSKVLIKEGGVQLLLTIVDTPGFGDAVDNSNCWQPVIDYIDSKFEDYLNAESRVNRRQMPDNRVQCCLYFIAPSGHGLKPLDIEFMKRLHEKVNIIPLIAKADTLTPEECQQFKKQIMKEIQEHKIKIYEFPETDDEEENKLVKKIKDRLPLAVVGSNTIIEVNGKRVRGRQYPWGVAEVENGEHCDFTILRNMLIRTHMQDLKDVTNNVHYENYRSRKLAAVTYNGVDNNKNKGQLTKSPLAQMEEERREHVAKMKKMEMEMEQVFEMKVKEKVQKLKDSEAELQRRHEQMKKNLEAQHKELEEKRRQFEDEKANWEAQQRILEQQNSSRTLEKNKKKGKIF
# UniProt Q15181: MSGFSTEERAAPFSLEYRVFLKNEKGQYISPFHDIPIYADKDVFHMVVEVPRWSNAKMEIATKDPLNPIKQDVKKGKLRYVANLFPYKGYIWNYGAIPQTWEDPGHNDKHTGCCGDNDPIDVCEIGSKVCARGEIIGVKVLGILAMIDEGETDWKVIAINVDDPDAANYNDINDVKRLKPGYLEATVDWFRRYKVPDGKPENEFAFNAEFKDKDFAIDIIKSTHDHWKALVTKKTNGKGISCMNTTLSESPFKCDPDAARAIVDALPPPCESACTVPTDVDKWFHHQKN
# UniProt Q15545, whole entry: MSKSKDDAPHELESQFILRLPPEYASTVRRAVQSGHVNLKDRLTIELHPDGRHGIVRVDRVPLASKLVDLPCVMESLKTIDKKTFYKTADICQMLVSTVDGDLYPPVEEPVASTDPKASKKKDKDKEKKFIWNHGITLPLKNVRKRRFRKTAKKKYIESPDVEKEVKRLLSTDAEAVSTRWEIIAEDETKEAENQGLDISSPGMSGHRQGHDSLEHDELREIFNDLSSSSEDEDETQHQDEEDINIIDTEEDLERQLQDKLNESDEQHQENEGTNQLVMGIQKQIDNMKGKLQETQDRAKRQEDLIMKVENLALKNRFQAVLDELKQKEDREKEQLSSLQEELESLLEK
# UniProt Q5JS37: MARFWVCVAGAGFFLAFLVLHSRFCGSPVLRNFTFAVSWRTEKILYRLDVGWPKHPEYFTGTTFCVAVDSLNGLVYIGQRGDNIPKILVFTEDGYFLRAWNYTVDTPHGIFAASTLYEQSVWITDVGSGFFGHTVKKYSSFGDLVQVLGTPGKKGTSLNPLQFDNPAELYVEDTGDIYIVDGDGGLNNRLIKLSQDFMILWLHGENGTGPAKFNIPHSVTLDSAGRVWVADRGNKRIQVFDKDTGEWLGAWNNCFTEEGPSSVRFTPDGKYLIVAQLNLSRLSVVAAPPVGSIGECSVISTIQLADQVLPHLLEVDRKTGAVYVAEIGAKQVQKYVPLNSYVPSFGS
# UniProt Q32P28: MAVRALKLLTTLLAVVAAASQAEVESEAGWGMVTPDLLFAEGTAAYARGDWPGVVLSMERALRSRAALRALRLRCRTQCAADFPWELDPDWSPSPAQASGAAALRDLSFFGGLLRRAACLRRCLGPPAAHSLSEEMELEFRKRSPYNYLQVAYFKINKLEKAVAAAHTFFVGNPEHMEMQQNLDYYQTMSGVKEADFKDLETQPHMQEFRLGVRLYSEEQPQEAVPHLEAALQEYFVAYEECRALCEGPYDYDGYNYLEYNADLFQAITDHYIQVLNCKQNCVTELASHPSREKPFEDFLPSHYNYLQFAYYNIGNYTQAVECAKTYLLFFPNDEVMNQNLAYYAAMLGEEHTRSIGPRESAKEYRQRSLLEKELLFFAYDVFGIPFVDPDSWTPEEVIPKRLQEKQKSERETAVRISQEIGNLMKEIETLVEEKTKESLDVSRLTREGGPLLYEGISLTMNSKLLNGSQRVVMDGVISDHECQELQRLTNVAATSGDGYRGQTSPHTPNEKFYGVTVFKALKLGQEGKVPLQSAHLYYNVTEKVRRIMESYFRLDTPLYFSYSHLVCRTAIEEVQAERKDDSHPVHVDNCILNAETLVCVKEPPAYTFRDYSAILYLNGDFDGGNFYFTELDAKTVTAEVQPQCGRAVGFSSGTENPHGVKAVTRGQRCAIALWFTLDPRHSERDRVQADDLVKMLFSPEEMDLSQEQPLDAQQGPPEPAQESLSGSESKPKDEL
# UniProt Q5T6V5: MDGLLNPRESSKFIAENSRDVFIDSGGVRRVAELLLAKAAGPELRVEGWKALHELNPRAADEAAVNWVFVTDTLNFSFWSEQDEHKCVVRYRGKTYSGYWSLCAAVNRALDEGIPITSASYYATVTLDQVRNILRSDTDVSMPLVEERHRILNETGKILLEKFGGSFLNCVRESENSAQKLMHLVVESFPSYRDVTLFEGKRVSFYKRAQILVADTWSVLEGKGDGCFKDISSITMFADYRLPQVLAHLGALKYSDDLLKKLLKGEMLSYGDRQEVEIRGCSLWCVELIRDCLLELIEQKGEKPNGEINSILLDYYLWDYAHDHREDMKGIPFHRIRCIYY
# UniProt Q9H6K1: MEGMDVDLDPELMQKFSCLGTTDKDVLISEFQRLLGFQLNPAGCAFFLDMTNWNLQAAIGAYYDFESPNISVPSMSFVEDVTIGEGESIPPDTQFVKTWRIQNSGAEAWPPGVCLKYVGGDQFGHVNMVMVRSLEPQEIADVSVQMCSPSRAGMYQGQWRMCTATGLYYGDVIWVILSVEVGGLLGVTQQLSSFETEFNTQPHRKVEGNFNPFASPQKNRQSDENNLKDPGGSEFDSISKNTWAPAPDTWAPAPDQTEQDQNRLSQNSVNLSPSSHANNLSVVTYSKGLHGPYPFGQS
# UniProt Q5T2E6: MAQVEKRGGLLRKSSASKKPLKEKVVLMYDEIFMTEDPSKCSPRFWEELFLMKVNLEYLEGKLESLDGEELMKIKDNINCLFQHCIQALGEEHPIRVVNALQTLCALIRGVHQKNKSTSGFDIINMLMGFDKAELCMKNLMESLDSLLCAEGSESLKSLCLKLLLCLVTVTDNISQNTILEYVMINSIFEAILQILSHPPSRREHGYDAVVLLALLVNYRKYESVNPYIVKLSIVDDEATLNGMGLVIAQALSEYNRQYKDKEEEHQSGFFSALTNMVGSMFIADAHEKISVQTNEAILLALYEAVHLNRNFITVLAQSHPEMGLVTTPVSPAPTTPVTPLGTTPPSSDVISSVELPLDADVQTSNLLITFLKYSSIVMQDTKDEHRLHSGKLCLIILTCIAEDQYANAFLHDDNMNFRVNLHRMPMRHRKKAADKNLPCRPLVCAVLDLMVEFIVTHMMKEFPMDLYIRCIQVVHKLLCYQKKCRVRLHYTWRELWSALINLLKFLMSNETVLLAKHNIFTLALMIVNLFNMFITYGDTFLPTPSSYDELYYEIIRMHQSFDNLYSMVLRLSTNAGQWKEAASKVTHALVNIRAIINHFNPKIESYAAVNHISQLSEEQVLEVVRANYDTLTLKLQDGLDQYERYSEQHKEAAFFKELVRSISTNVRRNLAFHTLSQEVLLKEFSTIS
# UniProt Q15233: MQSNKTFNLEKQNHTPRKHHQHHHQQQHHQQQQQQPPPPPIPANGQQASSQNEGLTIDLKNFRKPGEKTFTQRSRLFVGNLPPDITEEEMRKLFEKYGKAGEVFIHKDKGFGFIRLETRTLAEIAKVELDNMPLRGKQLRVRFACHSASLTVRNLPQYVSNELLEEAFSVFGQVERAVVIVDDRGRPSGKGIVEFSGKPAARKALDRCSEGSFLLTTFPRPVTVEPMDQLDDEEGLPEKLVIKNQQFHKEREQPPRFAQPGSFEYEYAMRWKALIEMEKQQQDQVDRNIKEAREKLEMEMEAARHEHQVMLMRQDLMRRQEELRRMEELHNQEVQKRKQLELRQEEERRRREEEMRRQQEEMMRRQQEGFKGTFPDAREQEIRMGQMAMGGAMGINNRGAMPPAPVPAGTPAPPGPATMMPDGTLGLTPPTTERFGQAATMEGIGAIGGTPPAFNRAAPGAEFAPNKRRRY
# ± gives the standard deviation of the averaged measurements. Only a part is listed here, and it is no random draw. Most values lie at the level of the controls, where differences are scatter.
# Compound: Nc1ncnc2c1ncn2[C@@H]1O[C@H](COP(=O)(O)OP(=O)(O)NP(=O)(O)O)[C@@H](O)[C@H]1O [adenylyl imidodiphosphate]
# Assay: NP40-soluble protein abundance relative to vehicle (solubility fold change) (ratio); higher = more soluble protein in presence of AMP-PNP
# Conditions: concentration: 0.5mM
# How it was run: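 Across three independent experiments, values are fold changes against the detergent-processed vehicle for each replicate, based on vsn-normalised intensities. The samples were Jurkat crude lysate treated with eight concentrations (0.1 to 10 mM) for 10 min at room temperature and then 3 min at 37 °C. Lysate was solubilised with 0.8% NP40 and benzonase, ultracentrifuged, and the supernatant analysed by TMT-labelled LC-MS/MS.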
row,Target,NP40-soluble protein abundance
1,UniProt Q5TKA1 and related entries,1.01 ± 0.04
2,UniProt Q27J81 and related entries,1.03 ± 0.059
3,UniProt Q16537 and related entries,0.962 ± 0.043
4,DNAL1 (UniProt Q4LDG9),1.03 ± 0.072
5,ZNHIT3 (UniProt Q15649),1.005 ± 0.0093
6,PTGES3 (UniProt Q15185),1.05 ± 0.094
7,UniProt Q16514-2|Q16514,1.03 ± 0.064
8,RSU1 (UniProt Q15404),1.04 ± 0.036
9,UniProt Q3YEC7,0.998 ± 0.035
10,UniProt Q15208,1.01 ± 0.045
11,UniProt Q5JSH3 and related entries,0.987 ± 0.046
12,TBC1D25 (UniProt Q3MII6),1.01 ± 0.018
13,ATP6AP1 (UniProt Q15904),0.984 ± 0.04
14,UniProt Q16181 and related entries,1.03 ± 0.036
15,PPA1 (UniProt Q15181),1.01 ± 0.021
16,TAF7 (UniProt Q15545),1.05 ± 0.039
17,UniProt Q5JS37 and related entries,0.986 ± 0.065
18,UniProt Q32P28 and related entries,0.985 ± 0.019
19,C9orf64 (UniProt Q5T6V5),0.979 ± 0.074
20,Q5JTV1 and related entries (UniProt Q9UKD1),0.977 ± 0.048
21,Q5TH58 and related entries (UniProt Q9H6K1),1.003 ± 0.0021
22,UniProt Q15642-2|Q15642-3|Q15642-4|W4VSQ9 and related entries,1.07 ± 0.043
23,UniProt Q5T2E6 and related entries,0.996 ± 0.038
24,CRTC2 (UniProt Q53ET0),0.991 ± 0.0037
25,NONO (UniProt Q15233),1.06 ± 0.035

# Shown with tabs: part of the list above.
row	Target	NP40-soluble protein abundance
1	UniProt Q5TKA1 and related entries	1.01 ± 0.04
2	UniProt Q27J81 and related entries	1.03 ± 0.059
